# Among all 220,000 compounds or so, about 2,400 (1.1%) were called active. This list was built around the results that the source calls inconclusive (neither active nor inactive); the mix of calls is not that of the screen. The call rests on the fitted dose curve; in most records, active means well fitted inhibition curve with a large enough effect; inconclusive means small, poorly fitted or top-dose-only effect, or effect the other way; inactive means no such curve, though single readings can be large or run the other way. Where the call is inconclusive, the potency comes from a doubtful curve fit.
# Test: qHTS Multiplex Assay to Identify Dual Action Probes in a Cell Model of Huntington: Aggregate Formation (GFP); further: nearly all actives have a fitted effect of over 60% in size
# Conditions: PC12 HttQ103-GFP aggregates, Acumen cytometry, 40 h; activity change, negative = inhibition: at 46.1 µM (top of the series) unless noted
# Procedure, shortened: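 Ecdysone-promoter PC12 model expressing HTT exon 1 Q103 fused to GFP, induced by tebufenozide at 100 nM final. Compounds titrated; aggregates sized 1–25 µm scored on a 488 nm laser cytometer.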
# On the % scale 0 is the no-effect control and ±100 the full control effect; potency means the concentration at half of the fitted maximal effect.
Structure (SMILES),"activity change, negative = inhibition",Potency
CCS(=O)(=O)N1Cc2ccccc2CC1C(=O)Nc1ncc(C)s1 (stereo not given),inactive: -12.9%,
CCn1c(SCC(=O)N2CCN(C(=O)c3ccco3)CC2)nnc1C(C)C,inactive: -12.9% [at 9.22 µM],
Cc1ccc(-n2c(-c3ccccc3)c[n+]3c2CCC3)cc1,,active: 8.91 µM
COC(=O)C1CCN(C(=O)COC(=O)c2ccc(OC)c(S(=O)(=O)N3CCCc4ccccc43)c2)CC1,inactive: -3.19%,
O=c1cc(/C=C/c2cccs2)[nH]c2ccccc12,,"inconclusive: 22.4 µM [inhibitor, single point]"
c1ccc(-c2cccc(-c3ccccn3)n2)nc1,,"inconclusive: 1.78 µM [inhibitor, full curve]"
O=C(Nc1ccc2snnc2c1)Nc1cccc2ccccc12,,"inconclusive: 35.5 µM [inhibitor, single point]"
O=[N+]([O-])c1ccc(-c2cnc(SCc3ccccc3Cl)[nH]2)cc1,,"inconclusive: 35.5 µM [inhibitor, single point]"
C=CCOc1cccc(/C=C2\C(=O)N(Cc3ccc(C)cc3)C(C)=C2C(=O)OC)c1,,"inconclusive: 7.94 µM [activator, partial curve, poor fit]"
CCN(CC)c1ccc2c(c1)CCCN2,,"inconclusive: 31.6 µM [inhibitor, single point]"
C=CCN(C(=O)CSC1=NC(=O)CN1C(C)=O)c1nc(C)c(-c2ccccc2)s1,,"inconclusive: 35.5 µM [inhibitor, single point]"
Cc1ccc(NC(=O)OCC(F)(F)C(F)F)cc1NC(=O)OCC(F)(F)C(F)F,inactive: -23%,
O=C(CSc1nc2nc(-c3cccs3)cc(C(F)(F)F)c2c(=O)[nH]1)Nc1c(F)c(F)c(F)c(F)c1F,,"inconclusive: 15.8 µM [inhibitor, single point]"
O=C(CO/N=C/c1ccc(OC(F)F)cc1)NCc1ccc(F)cc1,,"inconclusive: 35.5 µM [inhibitor, single point]"
Cn1ncc(Cl)c1C(=O)Nc1nc2ccc(Cl)cc2s1,,"inconclusive: 35.5 µM [inhibitor, single point]"
COc1ccc(N=C2NC(=O)C(CC(=O)NCCc3ccc(OC)c(OC)c3)S2)cc1 (stereo not given),inactive: 8.86%,
CCCSc1nnc(NC(=O)Nc2ccc(F)cc2)s1,,"inconclusive: 35.5 µM [inhibitor, single point]"
Cc1ccccc1Cn1nnc(C(=O)Nc2cccc(C)c2C)c1N,,"inconclusive: 2.82 µM [activator, partial curve]"
COc1ccc(/C=C/C(O)=C2/C(=O)NC3(C)CC2c2ccccc2O3)c(OC)c1OC (stereo not given),,"inconclusive: 11.2 µM [activator, partial curve]"
Cc1nnc(NC(=O)CSc2n[nH]c(-c3ccccc3)n2)s1,inactive: -11.1% [at 9.22 µM],
OCCN1CC(O)C(O)C(O)C1CO (stereo not given),inactive: 6.17%,
CCOC(=O)C1C(=O)C=C(/C=C/c2ccc(N(C)C)cc2)CC1c1ccccc1 (stereo not given),,"inconclusive: 10 µM [inhibitor, partial curve]"
CC1(C(=O)O)CCC(C(=O)N2CCCCC2)C1(C)C (stereo not given),inactive: -7.07% [at 9.22 µM],
COc1ccc(Cc2nnc(SCC(=O)NC3CCCCC3)n2C)cc1,,"inconclusive: 2 µM [inhibitor, partial curve]"

Structure (SMILES),"activity change, negative = inhibition",Potency
CCOc1ccccc1C(=O)N(C)Cc1cc2cc(OC)ccc2[nH]c1=O,,"inconclusive: 10 µM [inhibitor, partial curve]"
CCOC(=O)c1cccc(NC(=O)c2cnc3ccccc3n2)c1,,"inconclusive: 12.6 µM [activator, single point]"
Clc1ccc2c(c1)C(N1CCNCC1)=Nc1ccccc1O2,,inactive
COC(=O)c1sccc1NC(=O)CSc1ccccc1NS(=O)(=O)c1ccc(Cl)cc1,inactive: -12.1%,
CC(C)CNC(=O)NC(=O)COc1c(F)c(F)cc(F)c1F,,"inconclusive: 12.6 µM [inhibitor, partial curve]"
COC(=O)c1cc(NS(=O)(=O)c2ccc3c(c2)CCC(=O)N3)cc(C(=O)OC)c1,,"inconclusive: 3.55 µM [inhibitor, partial curve, poor fit]"
O=C(CCS(=O)(=O)Cc1ccc(Cl)cc1)NCCc1ccccc1,,"inconclusive: 8.91 µM [activator, partial curve, poor fit]"
Oc1ccc(C=Nc2ccc3ncccc3c2)c(O)c1,,"inconclusive: 25.1 µM [inhibitor, single point]"
O=C(/C=C/c1cccc([N+](=O)[O-])c1)NC(=S)Nc1ccccc1C(=O)O,,"inconclusive: 31.6 µM [inhibitor, single point]"
Cc1nc2ccccn2c1/C(O)=C1\C(=O)C(=O)N(CCN(C)C)C1c1cccnc1 (stereo not given),inactive: 8.43%,
CC1CN(S(=O)(=O)c2ccc(C(=O)Nc3nnc(-c4ccc5c(c4)CCCC5)o3)cc2)CC(C)O1 (stereo not given),,active: 3.55 µM
CCN(CC)C(=O)C1CCCN(c2ncnc3c2cnn3-c2cccc(C)c2)C1 (stereo not given),inactive: -4.66%,
O=C(c1cccc(F)c1)N1CCc2ccccc21,,"inconclusive: 0.562 µM [activator, full curve, poor fit]"
CC(C)(C)n1nnnc1C(c1ccccn1)N(Cc1ccccc1)Cc1ccc(Cl)cc1 (stereo not given),,"inconclusive: 35.5 µM [inhibitor, single point]"
CCn1c(=O)cc(SCC(=O)Nc2cccc(C)n2)c2ccccc21,inactive: 1.08%,
Clc1ccc(OCCSCc2nc3ccccc3[nH]2)cc1,,active: 7.08 µM
COc1ccc(C2CC2C(C)=O)cc1 (stereo not given),inactive: 7.24%,
Cc1cc2oc(=O)cc(CN3CCN(C/C=C/c4ccccc4)CC3)c2cc1O,,"inconclusive: 35.5 µM [inhibitor, single point]"
Cc1ccc(C2CC2C(=O)NNC(=S)Nc2cccc(Cl)c2)cc1 (stereo not given),,"inconclusive: 35.5 µM [inhibitor, single point]"
Nc1cc(-c2ccccc2)nn1S(=O)(=O)c1ccc(F)cc1,,"inconclusive: 35.5 µM [inhibitor, single point]"
Cc1ccccc1CSc1nnc(NC(=O)Cc2cccs2)s1,,"inconclusive: 3.16 µM [activator, partial curve]"
COc1ccc2nc(N3C(=O)/C(=C/c4ccccc4)NC3=S)sc2c1,,"inconclusive: 25.1 µM [inhibitor, single point]"
CCN(CC)S(=O)(=O)c1cc(NS(=O)(=O)c2cc(Cl)ccc2Cl)ccc1C,inactive: -0.958%,
CCC(=O)c1ccc(O)c(CC=C(C)C)c1,,"inconclusive: 0.1 µM [inhibitor, full curve, poor fit]"

Structure (SMILES),"activity change, negative = inhibition",Potency
COc1ccc2[nH]c(=O)c(CN(Cc3cccs3)S(=O)(=O)c3c(C)ccc4nsnc34)cc2c1,,"inconclusive: 7.94 µM [inhibitor, partial curve]"
COc1ccc(-c2cnc(NCc3cc4c(cc3[N+](=O)[O-])OCO4)n2C)cc1,inactive: 7.62%,
Cc1nn(-c2ccc(C(=O)O)cc2)c2c1C(=O)CC(C)(C)C2,inactive: 8.99% [at 9.22 µM],
CCCCNC(=O)CSc1nnc(-c2c[nH]c3ccccc23)n1CC1CCCO1 (stereo not given),,"inconclusive: 12.6 µM [activator, partial curve]"
CCC12CN(C(=O)c3ccc(C)cc3)CC(CC)(CN(C(=O)c3ccc(C)cc3)C1)C2=O,inactive: -15.7%,
Cc1ccc(-n2nc3c(c2NC(=O)c2c(-c4ccccc4Cl)noc2C)CS(=O)(=O)C3)c(C)c1,,"inconclusive: 12.6 µM [inhibitor, partial curve]"
Cn1c(SCC(=O)c2ccccc2)nnc1-c1cnccn1,inactive: 16.1%,
Cn1c(=O)c2c(nc(Oc3ccc4ccccc4c3)n2C)n(C)c1=O,,active: 1.41 µM
CC1=CC(=O)N(c2cccc(C(F)(F)F)c2)C1c1ccc(Cl)cc1 (stereo not given),,"inconclusive: 17.8 µM [inhibitor, single point]"
Nc1cc(-c2cccc(Br)c2)nn1Cc1ccccc1,,"inconclusive: 35.5 µM [inhibitor, single point]"
CCN(CC)CCNC(=S)NC(=O)c1cn(-c2ccccc2)nc1-c1ccc(OC)cc1,,"inconclusive: 35.5 µM [inhibitor, single point]"
CCn1c(SCC#N)nc2c(c1=O)C1(CCCC1)Cc1ccccc1-2,inactive: 18.1% [at 9.22 µM],
Cc1cc(Nc2ccccc2)nc(-c2ccccc2O)n1,,"inconclusive: 25.1 µM [inhibitor, partial curve, poor fit]"
CC12CCC(C(=O)N(NC(=O)c3ccccc3O)C1=O)C2(C)C (stereo not given),,"inconclusive: 3.16 µM [inhibitor, full curve]"
O=C(CSc1nnc(Cc2cccs2)n1Cc1ccco1)Nc1ccc(Cl)cc1Cl,,"inconclusive: 35.5 µM [activator, partial curve, poor fit]"
CC[C@]1(O)CC2CN(CCc3c([nH]c4ccccc34)[C@@](C(=O)OC)(c3cc4c(cc3OC)N(C)[C@H]3[C@@](O)(C(=O)OC)[C@H](OC(C)=O)[C@]5(CC)C=CCN6CC[C@]43[C@@H]65)C2)C1 (stereo not given in full),inactive: -42.6%,
Cc1cc(Nc2ccccc2)n(-c2ccccc2)n1,inactive: 2.68%,
CCOC(=O)c1c(C)nc2ccccc2c1C,inactive: 15.3%,
Cc1ccc(-n2nc(CC#N)c(C#N)c2N)cc1Cl,,"inconclusive: 1.12 µM [activator, single point]"
O=C(/C=C/c1ccc(Br)cc1)NC(=O)c1ccccc1O,inactive: 28.5%,
CCCS(=O)(=O)N1CCC(C(=O)NCCCN(CC)c2cccc(C)c2)CC1,,active: 31.6 µM
O=C(N/N=C/c1ccc([N+](=O)[O-])o1)c1cn(-c2ccccc2)nc1-c1ccc(Cl)cc1,,"inconclusive: 35.5 µM [activator, partial curve, poor fit]"

# Three entries drawn at random from those above:
Structure (SMILES),"activity change, negative = inhibition",Potency
CC1=CC(=O)N(c2cccc(C(F)(F)F)c2)C1c1ccc(Cl)cc1 (stereo not given),,"inconclusive: 17.8 µM [inhibitor, single point]"
Cc1cc(Nc2ccccc2)n(-c2ccccc2)n1,inactive: 2.68%,
COc1ccc2[nH]c(=O)c(CN(Cc3cccs3)S(=O)(=O)c3c(C)ccc4nsnc34)cc2c1,,"inconclusive: 7.94 µM [inhibitor, partial curve]"

# Quoted from the listing.
# In activity change, negative = inhibition, Cn1c(SCC(=O)c2ccccc2)nnc1-c1cnccn1 shows inactive: 16.1%
# In activity change, negative = inhibition, Cc1cc(Nc2ccccc2)n(-c2ccccc2)n1 shows inactive: 2.68%

# Source: PubChem BioAssay AID1688 (National Center for Advancing Translational Sciences (NCATS), 2009)
